No constants are given. Whether binding was seen depends on the method and setting. Binding seen in cells or lysates may run through a third protein. Some binding calls cover weakened binding; strength is not graded here. For some of these results: Sequences can lack the tags named with a protein.
How the values were obtained:
[1] = target: T1, Setdb2 (endogenous) (mouse (endogenous in BMDMs and whole wounds)) (UniProt Q8C267); test: co-IP; SETDB2 antibody on Protein G Dynabeads, whole wound lysates of ND and DIO mice, day 5 after wounding; Western blot for Stat3
T1 sequence: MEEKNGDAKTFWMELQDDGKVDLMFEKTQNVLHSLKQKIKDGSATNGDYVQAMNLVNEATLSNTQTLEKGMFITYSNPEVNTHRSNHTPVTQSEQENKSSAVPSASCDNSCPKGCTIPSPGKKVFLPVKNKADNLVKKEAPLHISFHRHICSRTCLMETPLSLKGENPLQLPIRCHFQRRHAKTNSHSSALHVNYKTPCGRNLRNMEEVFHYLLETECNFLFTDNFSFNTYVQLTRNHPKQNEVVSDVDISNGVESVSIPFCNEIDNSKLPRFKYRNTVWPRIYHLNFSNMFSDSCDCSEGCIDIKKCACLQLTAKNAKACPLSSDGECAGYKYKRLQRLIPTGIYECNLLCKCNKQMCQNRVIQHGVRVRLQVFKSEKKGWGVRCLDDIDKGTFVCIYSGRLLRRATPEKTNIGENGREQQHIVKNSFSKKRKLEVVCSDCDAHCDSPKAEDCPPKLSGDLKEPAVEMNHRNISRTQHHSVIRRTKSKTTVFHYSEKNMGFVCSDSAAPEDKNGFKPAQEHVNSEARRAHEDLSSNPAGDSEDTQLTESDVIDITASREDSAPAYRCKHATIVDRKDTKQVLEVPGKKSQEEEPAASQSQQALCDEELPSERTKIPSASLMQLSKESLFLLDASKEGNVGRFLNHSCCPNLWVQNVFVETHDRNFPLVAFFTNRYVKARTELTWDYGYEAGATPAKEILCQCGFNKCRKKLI

Chains of the proteins cited; added tags and fusions are not shown.
UniProt P42227: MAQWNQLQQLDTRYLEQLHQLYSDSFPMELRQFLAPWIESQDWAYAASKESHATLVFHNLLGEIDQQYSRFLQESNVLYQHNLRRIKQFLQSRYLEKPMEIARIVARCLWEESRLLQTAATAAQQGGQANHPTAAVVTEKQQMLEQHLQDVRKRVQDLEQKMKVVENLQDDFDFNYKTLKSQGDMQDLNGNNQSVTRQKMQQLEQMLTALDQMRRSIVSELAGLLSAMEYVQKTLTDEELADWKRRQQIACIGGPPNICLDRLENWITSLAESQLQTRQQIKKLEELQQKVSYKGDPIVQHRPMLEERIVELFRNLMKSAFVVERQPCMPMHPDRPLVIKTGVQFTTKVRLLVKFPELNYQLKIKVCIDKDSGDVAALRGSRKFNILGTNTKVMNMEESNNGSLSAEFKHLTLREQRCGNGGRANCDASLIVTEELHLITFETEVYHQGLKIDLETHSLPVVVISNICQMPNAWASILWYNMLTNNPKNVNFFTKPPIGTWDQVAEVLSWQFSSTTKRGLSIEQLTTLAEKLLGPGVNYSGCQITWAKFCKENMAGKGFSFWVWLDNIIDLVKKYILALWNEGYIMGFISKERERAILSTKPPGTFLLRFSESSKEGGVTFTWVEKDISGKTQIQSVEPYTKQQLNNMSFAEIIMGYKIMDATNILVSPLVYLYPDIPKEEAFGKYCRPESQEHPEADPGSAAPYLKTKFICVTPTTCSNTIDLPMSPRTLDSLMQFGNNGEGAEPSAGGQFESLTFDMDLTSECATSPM
UniProt Q04207: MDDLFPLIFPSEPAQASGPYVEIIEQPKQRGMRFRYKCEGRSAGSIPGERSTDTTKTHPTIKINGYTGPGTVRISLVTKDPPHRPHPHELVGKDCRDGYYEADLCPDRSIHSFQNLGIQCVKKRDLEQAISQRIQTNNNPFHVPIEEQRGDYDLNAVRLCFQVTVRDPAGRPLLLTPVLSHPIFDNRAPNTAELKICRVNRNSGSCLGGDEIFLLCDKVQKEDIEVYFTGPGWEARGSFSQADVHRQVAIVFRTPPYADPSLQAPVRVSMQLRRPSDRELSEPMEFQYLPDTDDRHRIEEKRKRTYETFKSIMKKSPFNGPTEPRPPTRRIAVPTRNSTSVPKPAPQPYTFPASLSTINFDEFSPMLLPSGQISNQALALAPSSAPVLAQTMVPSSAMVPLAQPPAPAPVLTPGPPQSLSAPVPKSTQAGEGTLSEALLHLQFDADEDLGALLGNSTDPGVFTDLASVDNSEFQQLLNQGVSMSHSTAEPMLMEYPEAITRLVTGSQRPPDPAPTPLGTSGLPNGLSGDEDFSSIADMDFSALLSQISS

[2] = target: T2, Recombinant GST-SETDB2 fusion protein (UniProt Q96T68); test: pull-down; 20 μg GST-SETDB2 on GST Sepharose beads, incubated with 500 μg BMDM lysate overnight at 4°C; washed 3× in RIPA buffer and 1× in TBS; Western blot; only the target purified
T2 sequence: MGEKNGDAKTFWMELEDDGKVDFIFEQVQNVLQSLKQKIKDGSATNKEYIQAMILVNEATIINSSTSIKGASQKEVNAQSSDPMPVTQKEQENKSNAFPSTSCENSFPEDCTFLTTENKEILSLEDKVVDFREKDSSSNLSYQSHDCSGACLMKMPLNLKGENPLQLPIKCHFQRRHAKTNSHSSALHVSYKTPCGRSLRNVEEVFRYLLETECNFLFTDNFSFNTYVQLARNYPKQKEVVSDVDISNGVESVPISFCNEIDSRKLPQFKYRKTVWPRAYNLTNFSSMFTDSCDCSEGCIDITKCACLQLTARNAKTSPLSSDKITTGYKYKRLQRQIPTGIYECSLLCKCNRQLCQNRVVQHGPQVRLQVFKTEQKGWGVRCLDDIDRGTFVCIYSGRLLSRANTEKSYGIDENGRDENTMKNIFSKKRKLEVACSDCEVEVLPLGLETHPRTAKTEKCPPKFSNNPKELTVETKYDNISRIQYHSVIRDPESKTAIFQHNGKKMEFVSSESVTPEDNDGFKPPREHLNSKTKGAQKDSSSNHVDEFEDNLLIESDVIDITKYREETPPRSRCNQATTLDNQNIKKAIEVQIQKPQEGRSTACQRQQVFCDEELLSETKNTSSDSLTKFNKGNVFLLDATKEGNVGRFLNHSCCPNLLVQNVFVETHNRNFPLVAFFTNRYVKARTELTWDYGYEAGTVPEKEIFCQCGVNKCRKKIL

[3] = target: T1, Setdb2 (endogenous) (mouse (endogenous in BMDMs and whole wounds)); test: co-IP; SETDB2 antibody (5 μg) on Protein G Dynabeads, RIPA lysate of BMDMs, overnight at 4°C; Western blot for RelA; BMDMs untreated or treated with the Stat3 inhibitor cryptotanshinone (1 μM), Stat3-deficient (Stat3fl/fl Lyz2Cre+) or Cre-negative, with or without IFN-β (10 U/mL, 4 hours)

binding [1]	binding [2]	binding [3]	Substance
binds	binds		STAT3 (from UniProt P42227 1-770)
	binds	binds	NF-κB component p65 (RELA) (from UniProt Q04207 1-549)

Source: article PMC11530128
